# Assay results: the supplement of paper PMC8728848
# The list shows a part of the results.
# What was measured:
# Test in all cases: glycan array binding signal (z-score within array); higher = stronger binding
# Settings in all cases: glycan notation: IUPAC condensed, linker removed
# [1] = biological target: Glc(b1-4)Glc
# Method in brief: (§1)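 Arrays were curated from the Consortium for Functional Glycomics database, 3228 in total, and kept only where the protein sequence was available. Binding is expressed as a within-array Z-score. This score was averaged across arrays of the same protein sequence at different concentrations or buffers and across linkers, and negative values can be read as non-binding.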
# [2] = biological target: Glc(b1-6)Glc
# Method in brief: as §1
# [3] = biological target: GlcA(b1-3)Gal
# Method in brief: as §1
# [4] = biological target: GlcA(b1-3)GlcNAc
# Method in brief: as §1
# [5] = biological target: GlcA(b1-6)Gal
# Method in brief: as §1
# [6] = biological target: GlcA3S(b1-3)Gal(b1-4)GlcNAc(b1-2)Man
# Method in brief: as §1
# [7] = biological target: GlcA3S(b1-3)Gal(b1-4)GlcNAc(b1-3)Gal(b1-4)Glc
# Method in brief: as §1
# [8] = biological target: GlcNAc(a1-3)Gal(b1-4)GlcNAc
# Method in brief: as §1
# [9] = biological target: GlcNAc(a1-4)Gal(b1-3)GlcNAc
# Method in brief: as §1
# [10] = biological target: GlcNAc(a1-4)Gal(b1-4)GalNAc
# Method in brief: as §1
# [11] = biological target: GlcNAc(a1-4)Gal(b1-4)GlcNAc
# Method in brief: as §1
# [12] = biological target: GlcNAc(a1-4)Gal(b1-4)GlcNAc(b1-3)Gal(b1-4)Glc
# Method in brief: as §1
# [13] = biological target: GlcNAc(a1-4)Gal(b1-4)GlcNAc(b1-3)Gal(b1-4)GlcNAc
# Method in brief: as §1
# [14] = biological target: GlcNAc(a1-4)Gal(b1-4)GlcNAc(b1-3)Gal(b1-4)GlcNAc(b1-3)Gal(b1-4)GlcNAc
# Method in brief: as §1
# [15] = biological target: GlcNAc(a1-4)Gal(b1-4)GlcNAc(b1-3)Gal(b1-4)[Fuc(a1-3)]GlcNAc(b1-3)Gal(b1-4)[Fuc(a1-3)]GlcNAc
# Method in brief: as §1
# [16] = biological target: GlcNAc(a1-6)Gal(b1-4)GlcNAc
# Method in brief: as §1
# [17] = biological target: GlcNAc(b1-2)Gal(b1-3)GalNAc
# Method in brief: as §1
# [18] = biological target: GlcNAc(b1-2)Man(a1-3)[GlcNAc(b1-2)Man(a1-6)]Man(b1-4)GlcNAc(b1-4)GlcNAc
# Method in brief: as §1
# [19] = biological target: GlcNAc(b1-2)Man(a1-3)[GlcNAc(b1-2)Man(a1-6)]Man(b1-4)GlcNAc(b1-4)[Fuc(a1-6)]GlcNAc
# Method in brief: as §1
# [20] = biological target: GlcNAc(b1-2)Man(a1-3)[GlcNAc(b1-4)][GlcNAc(b1-2)Man(a1-6)]Man(b1-4)GlcNAc(b1-4)GlcNAc
# Method in brief: as §1
# [21] = biological target: GlcNAc(b1-2)Man(a1-3)[GlcNAc(b1-4)][GlcNAc(b1-2)Man(a1-6)]Man(b1-4)GlcNAc(b1-4)[Fuc(a1-6)]GlcNAc
# Method in brief: as §1
# [22] = biological target: GlcNAc(b1-2)[GlcNAc(b1-4)]Man(a1-3)[GlcNAc(b1-2)Man(a1-6)]Man(b1-4)GlcNAc(b1-4)GlcNAc
# Method in brief: as §1
# [23] = biological target: GlcNAc(b1-2)[GlcNAc(b1-4)]Man(a1-3)[GlcNAc(b1-4)][GlcNAc(b1-2)Man(a1-6)]Man(b1-4)GlcNAc(b1-4)GlcNAc
# Method in brief: as §1
# [24] = biological target: GlcNAc(b1-2)[GlcNAc(b1-4)]Man(a1-3)[GlcNAc(b1-4)][GlcNAc(b1-2)[GlcNAc(b1-6)]Man(a1-6)]Man(b1-4)GlcNAc(b1-4)GlcNAc
# Method in brief: as §1
# [25] = biological target: GlcNAc(b1-2)[GlcNAc(b1-4)]Man(a1-3)[GlcNAc(b1-4)][GlcNAc(b1-2)[GlcNAc(b1-6)]Man(a1-6)]Man(b1-4)GlcNAc(b1-4)[Fuc(a1-6)]GlcNAc
# Method in brief: as §1
# [26] = biological target: GlcNAc(b1-2)[GlcNAc(b1-6)]Man(a1-6)[GlcNAc(b1-2)Man(a1-3)]Man(b1-4)GlcNAc(b1-4)GlcNAc
# Method in brief: as §1
# [27] = biological target: GlcNAc(b1-2)[GlcNAc(b1-6)]Man(a1-6)[GlcNAc(b1-2)Man(a1-3)]Man(b1-4)GlcNAc(b1-4)[Fuc(a1-6)]GlcNAc
# Method in brief: as §1
# [28] = biological target: GlcNAc(b1-2)[GlcNAc(b1-6)]Man(a1-6)[GlcNAc(b1-4)][GlcNAc(b1-2)Man(a1-3)]Man(b1-4)GlcNAc(b1-4)GlcNAc
# Method in brief: as §1
# [29] = biological target: GlcNAc(b1-3)Fuc
# Method in brief: as §1
# [30] = biological target: GlcNAc(b1-3)Gal
# Method in brief: as §1
# [31] = biological target: GlcNAc(b1-3)Gal(b1-3)GalNAc
# Method in brief: as §1
# [32] = biological target: GlcNAc(b1-3)Gal(b1-4)Glc
# Method in brief: as §1
# [33] = biological target: GlcNAc(b1-3)Gal(b1-4)GlcNAc
# Method in brief: as §1
# [34] = biological target: GlcNAc(b1-3)Gal(b1-4)GlcNAc(b1-2)Man(a1-3)[GlcNAc(b1-3)Gal(b1-4)GlcNAc(b1-2)Man(a1-6)]Man(b1-4)GlcNAc(b1-4)GlcNAc
# Method in brief: as §1
# [35] = biological target: GlcNAc(b1-3)Gal(b1-4)GlcNAc(b1-2)Man(a1-3)[GlcNAc(b1-3)Gal(b1-4)GlcNAc(b1-2)Man(a1-6)]Man(b1-4)GlcNAc(b1-4)[Fuc(a1-6)]GlcNAc
# Method in brief: as §1
# [36] = biological target: GlcNAc(b1-3)Gal(b1-4)GlcNAc(b1-2)[GlcNAc(b1-3)Gal(b1-4)GlcNAc(b1-6)]Man(a1-6)[GlcNAc(b1-3)Gal(b1-4)GlcNAc(b1-2)Man(a1-3)]Man(b1-4)GlcNAc(b1-4)GlcNAc
# Method in brief: as §1
# [37] = biological target: GlcNAc(b1-3)Gal(b1-4)GlcNAc(b1-3)Gal(b1-4)GlcNAc
# Method in brief: as §1
# [38] = biological target: GlcNAc(b1-3)Gal(b1-4)GlcNAc(b1-3)Gal(b1-4)GlcNAc(b1-2)Man(a1-3)[GlcNAc(b1-3)Gal(b1-4)GlcNAc(b1-3)Gal(b1-4)GlcNAc(b1-2)Man(a1-6)]Man(b1-4)GlcNAc(b1-4)GlcNAc
# Method in brief: as §1
# [39] = biological target: GlcNAc(b1-3)Gal(b1-4)GlcNAc(b1-3)Gal(b1-4)GlcNAc(b1-2)Man(a1-3)[GlcNAc(b1-3)Gal(b1-4)GlcNAc(b1-3)Gal(b1-4)GlcNAc(b1-2)Man(a1-6)]Man(b1-4)GlcNAc(b1-4)[Fuc(a1-6)]GlcNAc
# Method in brief: as §1
# [40] = biological target: GlcNAc(b1-3)Gal(b1-4)GlcNAc(b1-3)Gal(b1-4)GlcNAc(b1-2)[GlcNAc(b1-3)Gal(b1-4)GlcNAc(b1-3)Gal(b1-4)GlcNAc(b1-6)]Man(a1-6)[GlcNAc(b1-3)Gal(b1-4)GlcNAc(b1-3)Gal(b1-4)GlcNAc(b1-2)Man(a1-3)]Man(b1-4)GlcNAc(b1-4)[Fuc(a1-6)]GlcNAc
# Method in brief: as §1
# [41] = biological target: GlcNAc(b1-3)Gal(b1-4)GlcNAc(b1-3)Gal(b1-4)GlcNAc(b1-3)Gal(b1-4)GlcNAc(b1-2)Man(a1-3)[GlcNAc(b1-3)Gal(b1-4)GlcNAc(b1-3)Gal(b1-4)GlcNAc(b1-3)Gal(b1-4)GlcNAc(b1-2)Man(a1-6)]Man(b1-4)GlcNAc(b1-4)GlcNAc
# Method in brief: as §1
# [42] = biological target: GlcNAc(b1-3)Gal(b1-4)GlcNAc(b1-3)Gal(b1-4)GlcNAc(b1-3)Gal(b1-4)GlcNAc(b1-2)Man(a1-3)[GlcNAc(b1-3)Gal(b1-4)GlcNAc(b1-3)Gal(b1-4)GlcNAc(b1-3)Gal(b1-4)GlcNAc(b1-2)Man(a1-6)]Man(b1-4)GlcNAc(b1-4)[Fuc(a1-6)]GlcNAc
# Method in brief: as §1
# [43] = biological target: GlcNAc(b1-3)Gal(b1-4)GlcNAc(b1-3)Gal(b1-4)GlcNAc(b1-3)Gal(b1-4)GlcNAc(b1-2)[GlcNAc(b1-3)Gal(b1-4)GlcNAc(b1-3)Gal(b1-4)GlcNAc(b1-3)Gal(b1-4)GlcNAc(b1-6)]Man(a1-6)[GlcNAc(b1-3)Gal(b1-4)GlcNAc(b1-3)Gal(b1-4)GlcNAc(b1-3)Gal(b1-4)GlcNAc(b1-2)Man(a1-3)]Man(b1-4)GlcNAc(b1-4)[Fuc(a1-6)]GlcNAc
# Method in brief: as §1
# [44] = biological target: GlcNAc(b1-3)Gal(b1-4)GlcNAc(b1-3)Gal(b1-4)GlcNAc(b1-3)Gal(b1-4)GlcNAc(b1-3)Gal(b1-4)GlcNAc(b1-2)Man(a1-3)[GlcNAc(b1-3)Gal(b1-4)GlcNAc(b1-3)Gal(b1-4)GlcNAc(b1-3)Gal(b1-4)GlcNAc(b1-3)Gal(b1-4)GlcNAc(b1-2)Man(a1-6)]Man(b1-4)GlcNAc(b1-4)GlcNAc
# Method in brief: as §1
# [45] = biological target: GlcNAc(b1-3)Gal(b1-4)GlcNAc(b1-3)Gal(b1-4)GlcNAc(b1-3)Gal(b1-4)GlcNAc(b1-3)Gal(b1-4)GlcNAc(b1-2)Man(a1-3)[GlcNAc(b1-3)Gal(b1-4)GlcNAc(b1-3)Gal(b1-4)GlcNAc(b1-3)Gal(b1-4)GlcNAc(b1-3)Gal(b1-4)GlcNAc(b1-2)Man(a1-6)]Man(b1-4)GlcNAc(b1-4)[Fuc(a1-6)]GlcNAc
# Method in brief: as §1
binder,measurement,setting,value
"XTP3-B-MRH2 (Homo sapiens), Q96DZ1 (protein) EFLSGSYCFRGGVGWWKYEFCYGKHVHQYHEDKDSGKTSVVVGTWNQEEHIEWAKKNTARAYHLQDDGTQTVRMVSHFYGNGDICDITDKPRQVTVKLKCKESDSPHAVTVYMLEPHSCQYILGVESPVICKILDTA",glycan array binding signal (z-score),[1],-1.04
same,glycan array binding signal (z-score),[2],-0.464
same,glycan array binding signal (z-score),[3],-1.48
same,glycan array binding signal (z-score),[4],-1.71
same,glycan array binding signal (z-score),[5],-0.007
same,glycan array binding signal (z-score),[6],-0.557
same,glycan array binding signal (z-score),[7],-0.437
same,glycan array binding signal (z-score),[8],-0.785
same,glycan array binding signal (z-score),[9],-1.25
same,glycan array binding signal (z-score),[10],-1.12
same,glycan array binding signal (z-score),[11],0.381
same,glycan array binding signal (z-score),[12],-1.28
same,glycan array binding signal (z-score),[13],-0.157
same,glycan array binding signal (z-score),[14],0.75
same,glycan array binding signal (z-score),[15],0.946
same,glycan array binding signal (z-score),[16],0.424
same,glycan array binding signal (z-score),[17],0.355
same,glycan array binding signal (z-score),[18],-0.57
same,glycan array binding signal (z-score),[19],-0.201
same,glycan array binding signal (z-score),[20],-0.128
same,glycan array binding signal (z-score),[21],-0.728
same,glycan array binding signal (z-score),[22],-1.12
same,glycan array binding signal (z-score),[23],-0.712
same,glycan array binding signal (z-score),[24],0.018
same,glycan array binding signal (z-score),[25],0.752
same,glycan array binding signal (z-score),[26],1.7
same,glycan array binding signal (z-score),[27],-0.374
same,glycan array binding signal (z-score),[28],-0.561
same,glycan array binding signal (z-score),[29],1.89
same,glycan array binding signal (z-score),[30],-0.273
same,glycan array binding signal (z-score),[31],0.142
same,glycan array binding signal (z-score),[32],0.292
same,glycan array binding signal (z-score),[33],-0.888
same,glycan array binding signal (z-score),[34],-1.22
same,glycan array binding signal (z-score),[35],-0.246
same,glycan array binding signal (z-score),[36],0.276
same,glycan array binding signal (z-score),[37],1.09
same,glycan array binding signal (z-score),[38],0.894
same,glycan array binding signal (z-score),[39],-0.842
same,glycan array binding signal (z-score),[40],0.985
same,glycan array binding signal (z-score),[41],-1.38
same,glycan array binding signal (z-score),[42],-0.575
same,glycan array binding signal (z-score),[43],0.022
same,glycan array binding signal (z-score),[44],-0.742
same,glycan array binding signal (z-score),[45],-0.307

# Reformatted: entries from further up.
binder | measurement | setting | value
XTP3-B-MRH2 (Homo sapiens), Q96DZ1 (protein) EFLSGSYCFRGGVGWWKYEFCYGKHVHQYHEDKDSGKTSVVVGTWNQEEHIEWAKKNTARAYHLQDDGTQTVRMVSHFYGNGDICDITDKPRQVTVKLKCKESDSPHAVTVYMLEPHSCQYILGVESPVICKILDTA | glycan array binding signal (z-score) | [27] | -0.374
same | glycan array binding signal (z-score) | [28] | -0.561
